According to the supplement of paper PMC6445147:
Values scatter widely in this assay.

B1: human tRNA-Pro; a variant is named by its letters at N, in order (parent)
chain: GGCTCGTTGGTCTAGNGGTATGATTCTCGCTTAGGGTGCGAGAGGTCCCGGGTTCNNATCCCGGACGAGCCC

What was measured:
[1] = variants of: B1; test: tRNA Pol-III promoter activity, log2 (circRNA frequency / plasmid DNA frequency) (log2 ratio); higher = stronger promoter activity; settings: HEK293T; construct: no Pol-II promoter ((-)CMV library)
[2] = variants of: B1; test: tRNA 3' processing efficiency (processed reads / all reads, maximum-likelihood estimate) (fraction); higher = more efficient 3' processing; settings: HEK293T; construct: no Pol-II promoter ((-)CMV library)
[3] = variants of: B1; test: tRNA 5' processing efficiency (processed reads / all reads, maximum-likelihood estimate) (fraction); higher = more efficient 5' processing; settings: HEK293T; construct: CMV Pol-II promoter ((+)CMV library, decapped)

Variant | tRNA Pol-III promoter activity (log2) [1] | tRNA 3' processing efficiency [2] | tRNA 5' processing efficiency [3]
GAA T54A T59C | 2.39 | 0.36 | 
GAA A14C T53A A58T | 3.45 | 0.17 | 
GCA T8C | 1.43 | 0.46 | 
GAA T53C A58T | 0.432 | 0.29 | 0.14
GTA A14G A58T T59A | 4.62 | 0.67 | 
TAA C55T T59C | 6.53 | 0.33 | 
GAA C55T T59C | 0.897 | 0.17 | 
GAT T19C A58G | 4.76 | 0.34 | 
GCA A14T T19G | 4.4 | 0.67 | 
TAA G15T | -1.01 | 0.5 | 0.5
GAA A14T A20T T54A | 2.68 | 0.4 | 
TAA A20T T54A | 6.75 | 0.43 | 
GTT G15A G17C | 6.39 | 0.73 | 
CAA A58C T59A | 6.74 | 0.43 | 
GAC T19C C55G | 5.96 | 0.84 | 
GAA A20T T53A T59A | 2.84 | 0.14 | 
GAC A58G | 0.0424 | 0.18 | 0.33
AAC A14T | 3.25 | 0.42 | 
GAA A20T A58G | 1.63 | 0.22 | 0.25
GAG A14T A58T | 2.58 | 0.43 | 
TAA A58C T59A | 5.25 | 0.4 | 
GGG T19C | 4.32 | 0.25 | 0.03

Whole records as entered above:
GAG A14T A58T is listed as tRNA Pol-III promoter activity (log2) [1] = 2.58; tRNA 3' processing efficiency [2] = 0.43
GAC A58G is listed as tRNA Pol-III promoter activity (log2) [1] = 0.0424; tRNA 3' processing efficiency [2] = 0.18; tRNA 5' processing efficiency [3] = 0.33

Following part:

Variant | tRNA Pol-III promoter activity (log2) [1] | tRNA 3' processing efficiency [2] | tRNA 5' processing efficiency [3]
GAA A14G T19A A20T | 3.36 | 0.4 | 
GAA A14T A20T T59G | 3.81 | 0.17 | 
AAG T8C A14T | 6.25 | 0.2 | 
GAG A20C | 2.37 | 0.23 | 
GAA G15C T59A | 2.64 | 0.72 | 
TTA A20G A58C T59C | 5.03 | 0.25 | 
GAG T19G A58C | 3.03 | 0.25 | 
TAA C55G T59G | 3.68 | 0.2 | 
GTA T53A | 1.82 | 0.13 | 
CAG T8C | 3.55 | 0.2 | 
CTA A14C | 6.13 | 0.37 | 
TGA G9C G17C | 5.45 | 0.75 | 
GAA T8A | -0.681 | 0.95 | 0.33
CAA G15A T53G | 5.92 | 0.41 | 
CGC | 7.11 | 0.44 | 
GAG G9A | 1.75 | 0.38 | 
GCT T19A | 4.03 | 0.25 | 
GAA G9A A14T T53A | 3.61 | 0.25 | 
ATA T59A | 4.82 | 0.18 | 
GAG T8C A58C | 4.16 | 0.29 | 
TCA T19G | 4.19 | 0.33 | 
GAA G15A A20T T53A | 3.94 | 0.25 | 

Variant | tRNA Pol-III promoter activity (log2) [1] | tRNA 3' processing efficiency [2] | tRNA 5' processing efficiency [3]
GTA A14C T19C | 6.26 | 0.4 | 
AAA T59G | 2.35 | 0.26 | 0.33
GAA A20T A58T | -0.511 | 0.49 | 
GAA A14G G18T C55T | 3.38 | 0.14 | 
GAA A14T G50A | 2.77 | 0.25 | 
GTC A14T G15C | 7.39 | 0.55 | 
GAA T8C A20T T53A T59C | 3.93 | 0.4 | 
GAG G17T | 0.542 | 0.24 | 
CTA G9C A58C | 4.93 | 0.5 | 
GAA G15A T53G | 1.4 | 0.4 | 0.2
AAA A14T G17T | 6.02 | 0.95 | 
CTA T59A | 2.94 | 0.25 | 
CTG T19G A58G | 4.03 | 0.25 | 
GCA G1A | 5.93 | 0.25 | 
CCA A14T A20G | 4.94 | 0.25 | 
GTA T19A A20T A58C | 4.1 | 0.22 | 
GAA T8C G15C T59G | 6.03 | 0.25 | 
GTA T19A A20T C55G | 3.36 | 0.25 | 
GAC G15C | 0.995 | 0.22 | 
GAA A14C T19C | 3.54 | 0.42 | 
ATA T53G T54C | 6.26 | 0.4 | 
GAC G18A | 0.796 | 0.28 | 0.25

Variant | tRNA Pol-III promoter activity (log2) [1] | tRNA 3' processing efficiency [2] | tRNA 5' processing efficiency [3]
GAT A14T T19G | 2.16 | 0.29 | 
GAA T19A A20C C55A | 3.73 | 0.22 | 
GGA A20G T59C | 4.3 | 0.67 | 
CGT | 5.15 | 0.48 | 
GCA T8G A58G | 2.45 | 0.5 | 
GAT T59G | 0.623 | 0.45 | 
GTA G18A A58C | 2.67 | 0.2 | 
GAA G15A T59C | 0.908 | 0.33 | 
GAC G17A A20T | 3.14 | 0.43 | 
GCC T8C | 4.84 | 0.29 | 
GCA A58G T59G | 3.03 | 0.4 | 
CAA A14C C55T | 2.74 | 0.14 | 
CGA C55G | 5.16 | 0.07 | 
TTA A20T A58C | 4.74 | 0.57 | 
GAA T54A A58C | 0.781 | 0.57 | 0.83
GGG G17C | 3.91 | 0.36 | 
ATA A20T A58T | 8.43 | 0.43 | 
GAA T19G T54A | 2.16 | 0.8 | 
GAA T8C A14C T59C | 4.45 | 0.25 | 
GTA G15C A58T | 2.9 | 0.22 | 
GTA A14G G18T A58T | 8.45 | 0.13 | 
GTA A58T T59A | 4.31 | 0.38 | 

Variant | tRNA Pol-III promoter activity (log2) [1] | tRNA 3' processing efficiency [2] | tRNA 5' processing efficiency [3]
GAA G17T T19G T53A | 1.4 | 0.25 | 
GAA A20G T53A T54A | 4.45 | 0.25 | 
GAA G15A G17T T53A | 3.3 | 0.17 | 
AAA A58T | 4.31 | 0.93 | 0.25
GAA G18A A20C C55T | 4.25 | 0.4 | 
GAG G15T G17A | 3.45 | 0.17 | 
TAA A58T T59C | 5.36 | 0.79 | 
GAA T53C | 0.598 | 0.25 | 0.3
GCA | 0.886 | 0.42 | 0.47
GTA A14C G18T | 2.16 | 0.5 | 
GAG G9A A14G G15T | 4.03 | 0.5 | 
GGA A14C A20T A58T | 6.73 | 0.54 | 
GAA A14G T53C | 0.876 | 0.38 | 0.25
GAT A14G G17A T19C | 3.94 | 0.25 | 
GAA T8C T53C | 1.5 | 0.28 | 
GTG A14G A58T | 4.77 | 0.2 | 
GAA T8C A58G T59C | 4.93 | 0.13 | 
TAT G9T | 2.05 | 0.25 | 
TAA T8C T53C | 6.91 | 0.92 | 
AAA A14C T59G | 4.39 | 0.73 | 
GAT A14C G17A | 4.25 | 0.88 | 
GAA G9A A14G A20T | 2.5 | 0.29 | 
